The source of these data is PMC6331118.

What all share (assay): two-hybrid; co-transformation, yeast strain Gold as printed; growth on -AT plates and blue colour in β-Gal filter lift assay; Rab32 or Rab38 wt as bait, sorting nexins as prey
In assay [1] the target is T1, Rab32 wt (pAS 2-1-Rab32 wt, two-hybrid bait) (UniProt Q13637).
T1 sequence: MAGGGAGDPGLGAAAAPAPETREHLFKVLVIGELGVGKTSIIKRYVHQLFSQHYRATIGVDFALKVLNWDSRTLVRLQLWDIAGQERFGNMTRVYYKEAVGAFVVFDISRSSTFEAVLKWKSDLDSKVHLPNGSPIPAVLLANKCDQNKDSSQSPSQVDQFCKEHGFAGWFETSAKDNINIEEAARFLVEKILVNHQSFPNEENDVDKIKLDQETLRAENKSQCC

Assay [2] has as its target T2, Rab38 wt (pAS 2-1-Rab38 wt, two-hybrid bait) (UniProt P57729).
T2 sequence: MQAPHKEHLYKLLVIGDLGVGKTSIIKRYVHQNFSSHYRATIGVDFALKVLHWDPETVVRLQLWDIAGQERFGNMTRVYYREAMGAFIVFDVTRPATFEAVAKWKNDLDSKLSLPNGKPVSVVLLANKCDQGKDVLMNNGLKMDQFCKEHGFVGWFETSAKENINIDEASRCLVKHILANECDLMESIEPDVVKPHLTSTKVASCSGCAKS

Assay [3] concerns the target T3, Rab32 wt (pAS 2-1-Rab32 wt, two-hybrid bait), Q13637.
T3 chain: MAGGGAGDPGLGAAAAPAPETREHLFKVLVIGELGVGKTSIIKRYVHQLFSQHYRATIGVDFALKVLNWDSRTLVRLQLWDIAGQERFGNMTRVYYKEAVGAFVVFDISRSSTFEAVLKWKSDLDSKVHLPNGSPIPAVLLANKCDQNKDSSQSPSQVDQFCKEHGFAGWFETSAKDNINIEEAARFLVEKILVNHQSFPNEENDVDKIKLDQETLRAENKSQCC
The conditions noted are these: remark: other sources report otherwise.

The target in assay [4] is T4, Rab38 wt (pAS 2-1-Rab38 wt, two-hybrid bait), P57729.
T4 chain: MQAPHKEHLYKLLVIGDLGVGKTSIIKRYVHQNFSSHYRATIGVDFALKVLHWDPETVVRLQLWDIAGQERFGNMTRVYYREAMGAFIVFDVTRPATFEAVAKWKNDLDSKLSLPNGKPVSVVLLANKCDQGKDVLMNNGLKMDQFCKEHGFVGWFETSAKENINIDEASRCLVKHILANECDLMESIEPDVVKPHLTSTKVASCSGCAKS
The following applies: remark: other sources report otherwise.

Results are given in words; binding and its absence hold for the method and conditions named.

“SNX1, full length (pGADT7-SNX1, two-hybrid prey) (from UniProt Q13596-1 1-522)”: the binding entry in assay [1] and in assay [2] was “no binding” in each case.

B1: SNX32, full length (pGADT7-SNX32, two-hybrid prey) (protein, UniProt Q86XE0-1 1-403)
chain: METYAEVGKEGKPSCASVDLQGDSSLQVEISDAVSERDKVKFTVQTKSCLPHFAQTEFSVVRQHEEFIWLHDAYVENEEYAGLIIPPAPPRPDFEASREKLQKLGEGDSSVTREEFAKMKQELEAEYLAIFKKTVAMHEVFLQRLAAHPTLRRDHNFFVFLEYGQDLSVRGKNRKELLGGFLRNIVKSADEALITGMSGLKEVDDFFEHERTFLLEYHTRIRDACLRADRVMRAHKCLADDYIPISAALSSLGTQEVNQLRTSFLKLAELFERLRKLEGRVASDEDLKLSDMLRYYMRDSQAAKDLLYRRLRALADYENANKALDKARTRNREVRPAESHQQLCCQRFERLSDSAKQELMDFKSRRVSSFRKNLIELAELELKHAKASTLILRNTLVALKGEP
In the case of B1, the binding result in assay [1] and in assay [2] was “no binding” throughout.

B2: SNX2, full length (pGADT7-SNX2, two-hybrid prey) (protein, UniProt O60749-1 1-519)
chain: MAAEREPPPLGDGKPTDFEDLEDGEDLFTSTVSTLESSPSSPEPASLPAEDISANSNGPKPTEVVLDDDREDLFAEATEEVSLDSPEREPILSSEPSPAVTPVTPTTLIAPRIESKSMSAPVIFDRSREEIEEEANGDIFDIEIGVSDPEKVGDGMNAYMAYRVTTKTSLSMFSKSEFSVKRRFSDFLGLHSKLASKYLHVGYIVPPAPEKSIVGMTKVKVGKEDSSSTEFVEKRRAALERYLQRTVKHPTLLQDPDLRQFLESSELPRAVNTQALSGAGILRMVNKAADAVNKMTIKMNESDAWFEEKQQQFENLDQQLRKLHVSVEALVCHRKELSANTAAFAKSAAMLGNSEDHTALSRALSQLAEVEEKIDQLHQEQAFADFYMFSELLSDYIRLIAAVKGVFDHRMKCWQKWEDAQITLLKKREAEAKMMVANKPDKIQQAKNEIREWEAKVQQGERDFEQISKTIRKEVGRFEKERVKDFKTVIIKYLESLVQTQQQLIKYWEAFLPEAKAIA
Consider B2, for which the binding result in assay [1] and in assay [2] was “no binding” throughout.

B3: SNX5, full length (pGADT7-SNX5, two-hybrid prey), Q9Y5X3-1 1-404 (protein)
chain: MAAVPELLQQQEEDRSKLRSVSVDLNVDPSLQIDIPDALSERDKVKFTVHTKTTLPTFQSPEFSVTRQHEDFVWLHDTLIETTDYAGLIIPPAPTKPDFDGPREKMQKLGEGEGSMTKEEFAKMKQELEAEYLAVFKKTVSSHEVFLQRLSSHPVLSKDRNFHVFLEYDQDLSVRRKNTKEMFGGFFKSVVKSADEVLFTGVKEVDDFFEQEKNFLINYYNRIKDSCVKADKMTRSHKNVADDYIHTAACLHSLALEEPTVIKKYLLKVAELFEKLRKVEGRVSSDEDLKLTELLRYYMLNIEAAKDLLYRRTKALIDYENSNKALDKARLKSKDVKLAEAHQQECCQKFEQLSESAKEELINFKRKRVAAFRKNLIEMSELEIKHARNNVSLLQSCIDLFKNN
As for B3, the binding entry in assay [3] and in assay [4] was “no binding” throughout.
